At least one compound was matched to its structure with a doubt left.
Tests used:
TNFα = assay: Plasma TNFα after anti-CD3ε antibody (ELISA); format: in vivo; conditions: both TGRko and control mice; dexamethasone 200 μg before and 8 hours after anti-CD3ε antibody
IFNγ = assay: Plasma IFNγ after anti-CD3ε antibody (ELISA); format: in vivo, mice; conditions: either genotype (TGRko, control); dexamethasone 200 μg before and 8 hours after anti-CD3ε antibody
cecum of TGRko mice = assay: Histological analysis of the cecum in TGRko mice treated with anti-CD3ε antibody; format: in vivo; conditions: 3-5 mice per group

Row | Structure (SMILES) | plasma levels of TNFα (TNFα) | plasma IFNγ (IFNγ) | cecum histology (edema, inflammation, mucosal disruption) (cecum of TGRko mice)
1 | C[C@@H]1C[C@H]2[C@@H]3CCC4=CC(=O)C=C[C@]4(C)[C@@]3(F)[C@@H](O)C[C@]2(C)[C@@]1(O)C(=O)CO [dexamethasone] | reduced | not affected | 
2 | CS(=O)(=O)Nc1ccc([N+](=O)[O-])cc1OC1CCCCC1 [NS-398, N-(2-cyclohexyloxynitrophenyl) methane sulfonamide] |  |  | rescue

Reference: US20040022789A1, “Methods and compositions for treating T cell mediated inflammatory/autoimmune diseases and disorders in subjects having a glucocorticoid regulation deficiency” (The Washington University, priority 2002, published 2004)
